No signal at the amounts used counts as a negative. At least one verdict rests on a figure or table, not on a statement of the authors. Tags and fusion partners may be left off the protein sequences shown.
Target: T1, Zbed4 (mouse (cDNA from mouse retinal RNA)) (UniProt Q80WQ9)
T1 sequence (looked up): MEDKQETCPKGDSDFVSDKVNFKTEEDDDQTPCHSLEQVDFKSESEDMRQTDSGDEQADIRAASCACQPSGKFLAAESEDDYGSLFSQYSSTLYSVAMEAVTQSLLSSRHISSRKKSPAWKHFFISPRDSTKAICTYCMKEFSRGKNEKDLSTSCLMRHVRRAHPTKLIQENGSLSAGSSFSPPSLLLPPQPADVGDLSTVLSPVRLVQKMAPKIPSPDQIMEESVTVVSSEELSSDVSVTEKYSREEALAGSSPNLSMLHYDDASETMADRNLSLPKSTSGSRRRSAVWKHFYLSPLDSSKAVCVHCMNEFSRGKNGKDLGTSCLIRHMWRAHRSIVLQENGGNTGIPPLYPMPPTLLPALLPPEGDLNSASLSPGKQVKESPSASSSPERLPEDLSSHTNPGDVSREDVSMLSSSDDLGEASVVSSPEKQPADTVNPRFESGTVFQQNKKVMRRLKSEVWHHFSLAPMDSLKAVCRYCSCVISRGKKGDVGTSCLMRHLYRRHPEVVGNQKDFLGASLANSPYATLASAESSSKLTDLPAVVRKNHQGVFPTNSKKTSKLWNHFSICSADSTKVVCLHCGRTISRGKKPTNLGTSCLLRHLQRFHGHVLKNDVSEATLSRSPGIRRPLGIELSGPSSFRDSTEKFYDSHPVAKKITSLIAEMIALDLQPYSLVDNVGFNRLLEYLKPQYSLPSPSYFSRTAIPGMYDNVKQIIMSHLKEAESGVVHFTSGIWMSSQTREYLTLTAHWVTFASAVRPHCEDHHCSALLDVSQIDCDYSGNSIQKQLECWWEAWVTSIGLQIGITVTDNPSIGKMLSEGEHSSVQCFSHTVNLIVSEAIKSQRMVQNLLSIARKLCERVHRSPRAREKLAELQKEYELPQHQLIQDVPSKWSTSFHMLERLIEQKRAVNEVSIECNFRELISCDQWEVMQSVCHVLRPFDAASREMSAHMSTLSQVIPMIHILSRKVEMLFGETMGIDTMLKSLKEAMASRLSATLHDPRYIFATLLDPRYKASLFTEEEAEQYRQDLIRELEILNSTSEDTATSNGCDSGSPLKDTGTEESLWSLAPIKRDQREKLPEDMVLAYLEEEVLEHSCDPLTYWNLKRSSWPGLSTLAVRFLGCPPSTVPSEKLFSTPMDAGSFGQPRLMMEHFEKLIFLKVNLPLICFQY
Assay: EMSA
Details: 20 ug Zbed4, 0.5 nM oligo in 20 mM HEPES pH 7.5, 150 mM NaCl, 5 mM beta-mercaptoethanol, 5% glycerol, 0.5 mM ascorbic acid, 0.5 mM propyl gallate, 10 uM ZnSO4; recombinant protein; residues 1-1168; protein details: C-terminal His8; single-stranded DNA

Row | Sequence | binding result
1 | AAAAAAAAGGGAAAAAAAAA [G3] | no binding
2 | AAAAAAAAGGGGAAAAAAAA [G4] | no binding

Reference: paper PMC3365051, “Sequence-Specific Binding of Recombinant Zbed4 to DNA: Insights into Zbed4 Participation in Gene Transcription and Its Association with Other Proteins”
